These are yes or no findings as the source states them, for the method shown. In cells and extracts the contact can be indirect. Some entries that bind do so weakly or less than the wild type. Values belong to the substance of their own block, whether it stands above or below them.
Experiments:
[1] = target: synapse-associated protein of 97 kDa (SAP97) (rat (endogenous in cultured neocortical neurons)) (UniProt Q62696); assay: co-IP; lysate of DIV 14 cultured rat cortical neurons treated with BDNF (1 h, 50 ng/ml) or not; immunoprecipitation buffer with 1% deoxycholate, pH 7.5; anti-SAP97 or anti-GRIP1 pre-adsorbed to Protein A/Protein G-sepharose, overnight at 4°C; blots probed with anti-GluR1 or anti-GluR2
[2] = target: synapse-associated protein of 97 kDa (SAP97) (rat (endogenous in cultured neocortical neurons)) (UniProt Q62696); assay: co-IP; as a1, the vehicle-treated (no BDNF) neurons alone; anti-SAP97 precipitate probed with anti-GluR1
[3] = target: GRIP1 (expressed in HEKTrkB cells) (UniProt P97879); assay: co-IP; lysate of HEKTrkB cells co-transfected with GluR2 and GRIP1, treated with BDNF (1 h, 50 ng/mL) or not; precipitation with anti-N-terminal GluR2 and blot with anti-GRIP1, or precipitation with anti-GRIP1 and blot with anti-C-terminal GluR2/3
[4] = target: glutamate receptor-interacting protein1 (GRIP1) (rat (endogenous in cultured neocortical neurons)) (UniProt P97879); assay: co-IP; lysate of DIV 14 cultured rat cortical neurons treated with BDNF (1 h, 50 ng/ml) or not; immunoprecipitation buffer with 1% deoxycholate, pH 7.5; anti-SAP97 or anti-GRIP1 pre-adsorbed to Protein A/Protein G-sepharose, overnight at 4°C; blots probed with anti-GluR1 or anti-GluR2

Sequences of proteins named here, by UniProt entry; tags and fusion partners are left off. Residues count along the entry.
UniProt Q62696: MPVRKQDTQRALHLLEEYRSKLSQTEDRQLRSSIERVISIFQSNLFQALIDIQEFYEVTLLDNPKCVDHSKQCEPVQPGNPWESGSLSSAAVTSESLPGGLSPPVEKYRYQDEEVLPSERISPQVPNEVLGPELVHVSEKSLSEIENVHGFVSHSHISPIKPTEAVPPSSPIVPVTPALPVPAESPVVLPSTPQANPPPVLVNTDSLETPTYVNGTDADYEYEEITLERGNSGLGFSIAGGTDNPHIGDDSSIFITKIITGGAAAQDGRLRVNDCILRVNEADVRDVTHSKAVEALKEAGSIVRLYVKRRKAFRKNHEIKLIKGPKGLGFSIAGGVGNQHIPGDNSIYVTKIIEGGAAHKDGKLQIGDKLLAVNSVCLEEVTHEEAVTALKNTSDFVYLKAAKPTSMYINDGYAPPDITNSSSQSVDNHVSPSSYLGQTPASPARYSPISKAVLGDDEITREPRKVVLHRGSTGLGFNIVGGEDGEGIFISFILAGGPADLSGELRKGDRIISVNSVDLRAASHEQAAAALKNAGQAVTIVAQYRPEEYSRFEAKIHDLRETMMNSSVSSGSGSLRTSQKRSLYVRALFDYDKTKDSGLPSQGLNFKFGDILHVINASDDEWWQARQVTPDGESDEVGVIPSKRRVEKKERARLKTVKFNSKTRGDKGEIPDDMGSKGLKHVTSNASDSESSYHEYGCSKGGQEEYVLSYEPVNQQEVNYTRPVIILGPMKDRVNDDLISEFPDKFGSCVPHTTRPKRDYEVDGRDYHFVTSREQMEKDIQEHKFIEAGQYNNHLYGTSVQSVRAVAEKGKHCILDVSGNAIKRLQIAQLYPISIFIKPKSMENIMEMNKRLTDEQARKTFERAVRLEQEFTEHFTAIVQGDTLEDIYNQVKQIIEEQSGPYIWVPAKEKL
UniProt P97879: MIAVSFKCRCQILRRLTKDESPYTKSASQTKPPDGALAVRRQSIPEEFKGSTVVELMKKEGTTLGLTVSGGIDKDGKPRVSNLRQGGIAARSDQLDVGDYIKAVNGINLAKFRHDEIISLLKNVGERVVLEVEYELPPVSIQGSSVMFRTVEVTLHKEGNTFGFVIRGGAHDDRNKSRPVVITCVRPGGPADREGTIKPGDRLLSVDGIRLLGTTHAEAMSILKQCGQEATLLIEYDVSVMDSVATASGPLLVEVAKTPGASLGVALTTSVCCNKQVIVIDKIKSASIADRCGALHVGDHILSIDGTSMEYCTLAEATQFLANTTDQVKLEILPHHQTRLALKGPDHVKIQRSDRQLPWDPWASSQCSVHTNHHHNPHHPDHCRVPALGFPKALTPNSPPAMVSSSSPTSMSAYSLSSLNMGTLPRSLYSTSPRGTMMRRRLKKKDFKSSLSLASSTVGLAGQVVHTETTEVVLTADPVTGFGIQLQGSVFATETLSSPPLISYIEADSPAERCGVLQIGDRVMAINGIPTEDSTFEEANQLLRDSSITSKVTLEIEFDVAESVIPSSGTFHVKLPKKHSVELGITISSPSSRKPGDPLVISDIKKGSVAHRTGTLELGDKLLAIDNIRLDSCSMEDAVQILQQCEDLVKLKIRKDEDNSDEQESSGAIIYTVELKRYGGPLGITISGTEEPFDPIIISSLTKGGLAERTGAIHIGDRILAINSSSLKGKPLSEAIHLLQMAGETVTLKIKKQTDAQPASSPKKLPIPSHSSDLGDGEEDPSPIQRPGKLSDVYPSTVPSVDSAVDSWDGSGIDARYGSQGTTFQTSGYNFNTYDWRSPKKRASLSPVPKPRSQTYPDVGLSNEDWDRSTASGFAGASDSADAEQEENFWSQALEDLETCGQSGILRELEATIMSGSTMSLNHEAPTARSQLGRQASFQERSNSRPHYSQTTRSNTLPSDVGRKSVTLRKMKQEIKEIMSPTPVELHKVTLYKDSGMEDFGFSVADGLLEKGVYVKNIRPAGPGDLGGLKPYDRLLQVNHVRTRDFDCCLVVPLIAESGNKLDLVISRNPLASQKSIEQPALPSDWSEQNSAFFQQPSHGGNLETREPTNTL
UniProt P19490, residues 19-907: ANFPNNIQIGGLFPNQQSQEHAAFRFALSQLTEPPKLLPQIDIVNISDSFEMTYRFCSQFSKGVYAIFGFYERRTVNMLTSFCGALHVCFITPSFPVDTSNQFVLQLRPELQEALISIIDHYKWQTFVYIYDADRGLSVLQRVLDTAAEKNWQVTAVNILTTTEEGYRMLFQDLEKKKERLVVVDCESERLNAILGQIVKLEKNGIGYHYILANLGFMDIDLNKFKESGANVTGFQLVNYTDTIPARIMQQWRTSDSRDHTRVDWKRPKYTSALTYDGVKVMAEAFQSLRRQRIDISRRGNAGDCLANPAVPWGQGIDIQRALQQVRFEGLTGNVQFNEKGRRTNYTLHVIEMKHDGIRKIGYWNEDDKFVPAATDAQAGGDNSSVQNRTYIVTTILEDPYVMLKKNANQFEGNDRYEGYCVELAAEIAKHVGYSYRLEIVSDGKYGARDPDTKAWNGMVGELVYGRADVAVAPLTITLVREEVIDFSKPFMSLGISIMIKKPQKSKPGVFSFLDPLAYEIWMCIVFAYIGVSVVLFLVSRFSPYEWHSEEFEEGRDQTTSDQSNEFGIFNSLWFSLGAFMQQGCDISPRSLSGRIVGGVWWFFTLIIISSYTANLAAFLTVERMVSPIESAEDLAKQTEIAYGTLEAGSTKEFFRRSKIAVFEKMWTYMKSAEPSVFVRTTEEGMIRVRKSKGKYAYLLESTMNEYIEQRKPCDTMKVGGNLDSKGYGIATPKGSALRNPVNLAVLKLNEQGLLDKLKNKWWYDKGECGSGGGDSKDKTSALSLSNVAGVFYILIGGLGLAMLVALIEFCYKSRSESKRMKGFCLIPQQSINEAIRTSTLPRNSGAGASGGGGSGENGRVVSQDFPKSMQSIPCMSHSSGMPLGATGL
UniProt P19491, residues 22-883: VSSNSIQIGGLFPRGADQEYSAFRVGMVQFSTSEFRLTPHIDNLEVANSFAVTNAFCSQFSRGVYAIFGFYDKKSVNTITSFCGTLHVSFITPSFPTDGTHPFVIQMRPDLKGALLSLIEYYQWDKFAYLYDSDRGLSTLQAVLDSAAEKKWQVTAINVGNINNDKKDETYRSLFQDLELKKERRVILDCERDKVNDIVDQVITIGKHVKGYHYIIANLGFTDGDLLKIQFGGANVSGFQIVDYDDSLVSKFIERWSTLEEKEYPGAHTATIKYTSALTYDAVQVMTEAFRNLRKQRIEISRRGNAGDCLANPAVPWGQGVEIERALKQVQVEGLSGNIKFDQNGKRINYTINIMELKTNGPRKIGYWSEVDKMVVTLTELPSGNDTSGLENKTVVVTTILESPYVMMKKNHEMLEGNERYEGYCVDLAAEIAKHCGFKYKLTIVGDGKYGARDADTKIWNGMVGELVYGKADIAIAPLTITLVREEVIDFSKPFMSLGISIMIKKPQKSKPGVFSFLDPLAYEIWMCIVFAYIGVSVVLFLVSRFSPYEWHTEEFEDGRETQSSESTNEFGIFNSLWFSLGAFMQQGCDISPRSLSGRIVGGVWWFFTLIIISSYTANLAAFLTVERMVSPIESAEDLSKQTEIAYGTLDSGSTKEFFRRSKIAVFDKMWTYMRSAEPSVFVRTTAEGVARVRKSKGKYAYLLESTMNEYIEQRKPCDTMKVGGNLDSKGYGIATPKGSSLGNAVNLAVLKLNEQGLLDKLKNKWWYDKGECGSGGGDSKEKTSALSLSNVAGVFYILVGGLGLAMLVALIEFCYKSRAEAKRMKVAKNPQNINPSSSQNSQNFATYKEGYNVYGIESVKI

binding [1]: binds
binding [2]: binds weakly
Substance: AMPA receptor subunit GluR1 (from UniProt P19490-1 19-907)

binding [3]: binds
Substance: GluR2 (wild type, full length, expressed in HEKTrkB cells) (from UniProt P19491 22-883) (receptor)

binding [4]: binds
Substance: AMPA receptor subunit GluR2 (from UniProt P19491 22-883)

From publication PMC3584105, “Acute BDNF Treatment Upregulates GluR1-SAP97 and GluR2-GRIP1 Interactions: Implications for Sustained AMPA Receptor Expression” (PLoS ONE, 2013)
